Measured values reported in the supplement of paper PMC10849652.
Some of the results follow.

Amino acid sequences for entries named in this document (tags omitted). A change or cut given only in a name is not applied to a line headed by its entry.
UniProt Q8WVC6: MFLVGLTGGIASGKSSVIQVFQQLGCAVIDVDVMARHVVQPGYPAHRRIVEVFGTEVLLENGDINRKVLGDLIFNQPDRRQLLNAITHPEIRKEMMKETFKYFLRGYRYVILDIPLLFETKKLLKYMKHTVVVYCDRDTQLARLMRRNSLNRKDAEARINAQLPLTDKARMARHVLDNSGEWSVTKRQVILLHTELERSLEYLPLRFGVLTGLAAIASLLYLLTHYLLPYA
UniProt O43739: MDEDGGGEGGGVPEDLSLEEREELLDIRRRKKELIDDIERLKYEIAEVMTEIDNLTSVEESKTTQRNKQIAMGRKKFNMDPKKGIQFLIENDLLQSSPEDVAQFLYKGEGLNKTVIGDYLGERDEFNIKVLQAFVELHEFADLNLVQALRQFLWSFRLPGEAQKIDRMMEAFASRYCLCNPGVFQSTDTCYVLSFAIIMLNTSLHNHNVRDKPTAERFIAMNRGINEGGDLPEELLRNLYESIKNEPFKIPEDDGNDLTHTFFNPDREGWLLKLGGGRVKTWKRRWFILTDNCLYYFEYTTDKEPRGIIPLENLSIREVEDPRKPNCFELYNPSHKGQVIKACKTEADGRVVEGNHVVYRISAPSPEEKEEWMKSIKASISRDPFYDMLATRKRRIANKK
UniProt Q8WV16: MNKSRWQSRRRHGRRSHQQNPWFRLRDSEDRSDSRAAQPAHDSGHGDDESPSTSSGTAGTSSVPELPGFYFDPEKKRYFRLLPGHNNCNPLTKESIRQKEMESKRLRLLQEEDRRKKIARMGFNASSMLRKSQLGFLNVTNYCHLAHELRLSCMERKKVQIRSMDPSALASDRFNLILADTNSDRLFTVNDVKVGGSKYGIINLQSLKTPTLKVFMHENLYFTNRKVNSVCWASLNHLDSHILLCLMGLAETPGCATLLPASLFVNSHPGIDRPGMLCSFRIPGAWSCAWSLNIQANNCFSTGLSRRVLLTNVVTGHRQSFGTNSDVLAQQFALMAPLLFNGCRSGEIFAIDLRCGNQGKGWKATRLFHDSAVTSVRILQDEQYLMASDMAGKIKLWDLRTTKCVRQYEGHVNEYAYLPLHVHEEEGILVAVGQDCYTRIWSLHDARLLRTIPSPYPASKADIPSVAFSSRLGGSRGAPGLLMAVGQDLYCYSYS
UniProt Q9HBI6: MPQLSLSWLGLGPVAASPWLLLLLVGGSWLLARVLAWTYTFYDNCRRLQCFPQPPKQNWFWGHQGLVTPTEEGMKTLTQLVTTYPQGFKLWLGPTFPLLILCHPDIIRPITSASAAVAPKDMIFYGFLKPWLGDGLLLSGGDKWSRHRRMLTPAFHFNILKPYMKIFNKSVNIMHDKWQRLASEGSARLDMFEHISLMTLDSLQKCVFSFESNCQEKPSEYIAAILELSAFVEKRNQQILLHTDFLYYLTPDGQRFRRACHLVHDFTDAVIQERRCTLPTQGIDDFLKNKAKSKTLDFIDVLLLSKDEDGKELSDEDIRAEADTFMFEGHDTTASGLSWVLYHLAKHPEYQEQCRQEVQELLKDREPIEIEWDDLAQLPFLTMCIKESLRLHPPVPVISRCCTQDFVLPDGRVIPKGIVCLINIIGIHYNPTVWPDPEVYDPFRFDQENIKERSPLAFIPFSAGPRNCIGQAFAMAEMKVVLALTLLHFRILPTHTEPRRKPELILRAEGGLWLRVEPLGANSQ
UniProt P35638, whole entry, looked up: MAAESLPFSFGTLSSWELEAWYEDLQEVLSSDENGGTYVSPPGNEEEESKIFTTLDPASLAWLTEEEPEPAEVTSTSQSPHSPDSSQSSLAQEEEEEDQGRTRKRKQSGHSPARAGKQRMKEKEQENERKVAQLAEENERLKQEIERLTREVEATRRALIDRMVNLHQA
UniProt Q9BWK5: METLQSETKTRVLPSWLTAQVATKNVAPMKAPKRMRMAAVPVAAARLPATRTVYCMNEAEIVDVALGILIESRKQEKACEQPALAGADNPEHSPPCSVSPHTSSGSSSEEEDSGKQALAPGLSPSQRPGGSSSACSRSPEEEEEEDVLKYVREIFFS
UniProt Q16531, whole entry, looked up: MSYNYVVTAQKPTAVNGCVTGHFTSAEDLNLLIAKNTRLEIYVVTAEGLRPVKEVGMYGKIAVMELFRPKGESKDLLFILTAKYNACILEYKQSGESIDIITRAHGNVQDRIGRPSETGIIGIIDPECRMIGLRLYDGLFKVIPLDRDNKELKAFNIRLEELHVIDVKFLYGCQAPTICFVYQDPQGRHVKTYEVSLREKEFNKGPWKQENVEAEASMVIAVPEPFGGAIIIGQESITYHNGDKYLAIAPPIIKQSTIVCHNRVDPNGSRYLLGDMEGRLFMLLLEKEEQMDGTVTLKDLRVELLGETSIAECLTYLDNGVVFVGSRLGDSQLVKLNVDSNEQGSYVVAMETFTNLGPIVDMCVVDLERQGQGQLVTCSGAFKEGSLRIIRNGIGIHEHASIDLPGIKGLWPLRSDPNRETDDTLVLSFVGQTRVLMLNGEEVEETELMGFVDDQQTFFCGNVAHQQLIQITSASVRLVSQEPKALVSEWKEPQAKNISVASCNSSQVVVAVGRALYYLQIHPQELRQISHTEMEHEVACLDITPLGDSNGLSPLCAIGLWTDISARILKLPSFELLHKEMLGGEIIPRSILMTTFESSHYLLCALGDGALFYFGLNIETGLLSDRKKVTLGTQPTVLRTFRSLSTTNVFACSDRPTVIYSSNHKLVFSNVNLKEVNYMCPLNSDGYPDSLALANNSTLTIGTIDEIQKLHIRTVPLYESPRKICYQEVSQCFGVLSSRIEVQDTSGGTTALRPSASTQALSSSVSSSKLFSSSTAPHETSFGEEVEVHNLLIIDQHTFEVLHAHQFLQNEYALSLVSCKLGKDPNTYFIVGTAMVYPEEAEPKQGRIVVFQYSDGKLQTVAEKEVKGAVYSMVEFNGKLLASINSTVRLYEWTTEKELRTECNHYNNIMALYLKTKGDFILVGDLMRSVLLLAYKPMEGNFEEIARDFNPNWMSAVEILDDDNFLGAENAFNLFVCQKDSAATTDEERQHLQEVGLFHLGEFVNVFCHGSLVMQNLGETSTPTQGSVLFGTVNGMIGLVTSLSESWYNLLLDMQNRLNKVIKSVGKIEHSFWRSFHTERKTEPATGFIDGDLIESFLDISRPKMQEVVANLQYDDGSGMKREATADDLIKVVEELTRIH
UniProt Q6IQ26: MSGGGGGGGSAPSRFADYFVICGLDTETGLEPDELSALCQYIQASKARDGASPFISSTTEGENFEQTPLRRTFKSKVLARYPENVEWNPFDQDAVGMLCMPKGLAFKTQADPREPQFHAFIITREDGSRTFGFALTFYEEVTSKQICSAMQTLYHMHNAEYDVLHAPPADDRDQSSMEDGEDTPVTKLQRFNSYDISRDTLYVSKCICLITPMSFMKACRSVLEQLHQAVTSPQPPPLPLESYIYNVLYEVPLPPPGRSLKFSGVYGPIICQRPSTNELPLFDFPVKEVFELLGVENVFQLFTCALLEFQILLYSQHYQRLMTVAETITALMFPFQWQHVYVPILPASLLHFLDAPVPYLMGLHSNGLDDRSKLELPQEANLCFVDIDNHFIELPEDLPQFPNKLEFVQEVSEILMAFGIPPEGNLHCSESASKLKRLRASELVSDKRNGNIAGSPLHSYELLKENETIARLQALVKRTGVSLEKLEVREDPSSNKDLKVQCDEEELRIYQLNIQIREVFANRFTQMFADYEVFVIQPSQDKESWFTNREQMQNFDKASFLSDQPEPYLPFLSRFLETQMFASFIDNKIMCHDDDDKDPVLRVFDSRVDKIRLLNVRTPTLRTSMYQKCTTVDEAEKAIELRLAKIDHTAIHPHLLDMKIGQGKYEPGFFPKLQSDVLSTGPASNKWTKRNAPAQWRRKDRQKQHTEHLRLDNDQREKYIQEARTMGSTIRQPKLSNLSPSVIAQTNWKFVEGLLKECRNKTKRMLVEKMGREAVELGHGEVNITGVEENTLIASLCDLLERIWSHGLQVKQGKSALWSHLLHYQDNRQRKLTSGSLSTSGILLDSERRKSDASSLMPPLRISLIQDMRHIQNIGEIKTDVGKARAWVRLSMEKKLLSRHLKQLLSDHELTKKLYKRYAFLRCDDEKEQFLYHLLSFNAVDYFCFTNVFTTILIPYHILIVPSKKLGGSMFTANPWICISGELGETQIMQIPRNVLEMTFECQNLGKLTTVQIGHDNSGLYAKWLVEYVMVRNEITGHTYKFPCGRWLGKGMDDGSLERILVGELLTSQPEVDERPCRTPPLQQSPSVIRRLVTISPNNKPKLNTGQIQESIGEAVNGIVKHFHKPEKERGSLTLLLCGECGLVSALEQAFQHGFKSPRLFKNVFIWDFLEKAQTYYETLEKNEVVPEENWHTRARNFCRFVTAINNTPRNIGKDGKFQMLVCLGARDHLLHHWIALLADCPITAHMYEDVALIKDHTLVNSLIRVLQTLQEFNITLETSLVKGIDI
UniProt Q9NUU7: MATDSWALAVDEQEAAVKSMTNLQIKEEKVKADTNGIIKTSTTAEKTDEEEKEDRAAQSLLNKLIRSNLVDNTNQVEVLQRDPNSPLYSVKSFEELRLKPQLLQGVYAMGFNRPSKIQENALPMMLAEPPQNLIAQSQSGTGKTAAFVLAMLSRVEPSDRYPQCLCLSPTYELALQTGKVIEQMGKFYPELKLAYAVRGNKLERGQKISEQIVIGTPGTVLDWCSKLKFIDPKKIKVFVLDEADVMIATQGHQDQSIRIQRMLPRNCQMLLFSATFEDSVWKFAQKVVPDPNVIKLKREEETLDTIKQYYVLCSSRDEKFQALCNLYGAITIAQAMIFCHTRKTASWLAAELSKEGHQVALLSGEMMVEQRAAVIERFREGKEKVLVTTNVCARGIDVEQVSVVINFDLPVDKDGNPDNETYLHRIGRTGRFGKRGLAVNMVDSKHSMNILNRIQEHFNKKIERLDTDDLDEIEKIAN
UniProt Q8N8Z6: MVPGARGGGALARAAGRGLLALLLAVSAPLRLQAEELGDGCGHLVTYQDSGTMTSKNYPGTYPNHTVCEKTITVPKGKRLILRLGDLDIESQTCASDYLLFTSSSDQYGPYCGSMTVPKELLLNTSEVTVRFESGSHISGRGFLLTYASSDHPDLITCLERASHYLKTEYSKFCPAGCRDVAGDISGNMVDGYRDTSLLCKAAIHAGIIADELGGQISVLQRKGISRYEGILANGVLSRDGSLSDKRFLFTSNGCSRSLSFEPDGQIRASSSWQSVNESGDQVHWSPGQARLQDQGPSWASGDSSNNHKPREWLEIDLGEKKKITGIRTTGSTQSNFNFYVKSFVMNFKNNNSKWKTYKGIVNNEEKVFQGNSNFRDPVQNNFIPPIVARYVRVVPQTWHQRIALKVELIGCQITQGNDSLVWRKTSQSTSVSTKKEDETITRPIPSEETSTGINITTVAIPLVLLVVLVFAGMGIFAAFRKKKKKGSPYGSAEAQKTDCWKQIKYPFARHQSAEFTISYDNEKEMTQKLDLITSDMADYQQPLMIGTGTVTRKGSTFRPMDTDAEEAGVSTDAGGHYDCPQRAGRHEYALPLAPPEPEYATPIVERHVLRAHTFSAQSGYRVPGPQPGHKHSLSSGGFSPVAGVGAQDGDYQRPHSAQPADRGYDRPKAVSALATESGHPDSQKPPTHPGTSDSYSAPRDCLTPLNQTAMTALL
UniProt Q9NX09: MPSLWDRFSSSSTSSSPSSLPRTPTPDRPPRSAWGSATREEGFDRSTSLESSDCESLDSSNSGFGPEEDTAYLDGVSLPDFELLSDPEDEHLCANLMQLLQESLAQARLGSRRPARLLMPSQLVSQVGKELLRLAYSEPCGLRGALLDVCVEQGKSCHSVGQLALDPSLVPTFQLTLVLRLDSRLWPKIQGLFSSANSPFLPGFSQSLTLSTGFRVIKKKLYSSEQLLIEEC
UniProt Q96SD1, whole entry, looked up: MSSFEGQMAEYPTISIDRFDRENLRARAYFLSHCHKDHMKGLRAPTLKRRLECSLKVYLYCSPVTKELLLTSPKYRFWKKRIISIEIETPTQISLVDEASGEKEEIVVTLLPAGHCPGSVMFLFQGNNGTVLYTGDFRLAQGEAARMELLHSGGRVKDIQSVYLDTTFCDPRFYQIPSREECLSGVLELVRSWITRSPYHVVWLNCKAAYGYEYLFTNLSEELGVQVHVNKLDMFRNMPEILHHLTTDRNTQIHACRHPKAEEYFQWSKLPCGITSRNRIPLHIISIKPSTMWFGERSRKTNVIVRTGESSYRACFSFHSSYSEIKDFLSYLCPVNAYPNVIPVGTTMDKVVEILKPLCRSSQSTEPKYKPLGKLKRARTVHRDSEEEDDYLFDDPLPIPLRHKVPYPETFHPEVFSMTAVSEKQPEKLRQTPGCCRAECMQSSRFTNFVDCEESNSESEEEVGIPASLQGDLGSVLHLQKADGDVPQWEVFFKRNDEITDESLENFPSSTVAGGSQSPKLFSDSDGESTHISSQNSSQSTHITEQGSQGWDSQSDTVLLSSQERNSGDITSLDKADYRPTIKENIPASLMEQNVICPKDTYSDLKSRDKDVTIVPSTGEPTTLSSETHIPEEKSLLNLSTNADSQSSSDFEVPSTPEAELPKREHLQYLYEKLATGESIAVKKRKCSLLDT

Assays:
Experiment in all cases: log2 fold change, soluble protein after heating vs DMSO (PISA); higher = thermal stabilisation; K562 lysate, 10 uM; active = over 0.2 and 3.5 SD of the protein, either way, in both replicates (recomputed)
[1] = compound: C/C(=N\NC(=O)C1=CC(=CC=C1)S(=O)(=O)N2CCOCC2)/C3=C(C=CC(=C3)Cl)O
Outline: (§1)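 Quantification was by TMTpro 16plex LC-MS/MS with equalised channel sums, applied to the supernatant after 21,000xg for 90 min. Samples were crude K562 extract at 1 mg/mL protein in PBS pH 7.4 with 1 mM MgCl2, treated with 10 μM compound for 30 min, heated for 3 min across 48°C-58°C, pooled and brought to 0.5% NP-40 at 4°C. Values are log-two fold changes in thermal stability relative to solvent controls, from duplicates.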

[2] = compound: C1=CC2=C(C=CC(=C2)/C=C\3/C(=O)NC(=NCC4=CC=CS4)S3)N=C1
Outline: as §1

[3] = compound: C1=CC=C(C=C1)C2=NC(=C(N2)C3=CC=NC=C3)C4=CC(=C(C=C4)Cl)O
Outline: as §1

[4] = compound: C1=CC=C2C(=C1)C3=NNC4=CC=CC(=C43)C2=O
Outline: as §1

IRAK-1-4 Inhibitor I = compound: C1COCCN1CCN2C3=CC=CC=C3N=C2NC(=O)C4=CC(=CC=C4)[N+](=O)[O-] [IRAK-1-4 Inhibitor I]
Outline: as §1

ralimetinib = compound: CC(C)(C)Cn1c(N)nc2ccc(-c3[nH]c(C(C)(C)C)nc3-c3ccc(F)cc3)nc21 [ralimetinib]
Outline: as §1

[5] = compound: CC(C)(O)CC(=O)NCCn1ccc2ncnc(Nc3ccc(Oc4cccc(C(F)(F)F)c4)c(Cl)c3)c21
Outline: as §1

[6] = compound: CC1=C(C(CC(=O)N1)C2=CC=C(C=C2)C(F)(F)F)C(=O)NC3=C(C=C4C(=C3)C=NN4)F
Outline: as §1

[7] = compound: CC1=C(C=C(C=C1)NC(=O)C2=CC(=CC=C2)N(C)C)NC(=O)C3=CC=C(C=C3)O
Outline: as §1

[8] = compound: CC(=O)c1cnc2ccc(-c3cc(Cl)c(O)c(Cl)c3)nc2c1N[C@H]1CC[C@H](CN(C)C)CC1
Outline: as §1

[9] = compound: CC1=CC=C(C=C1)SC2=C3C=C(SC3=CN=C2)C(=O)N
Outline: as §1

[10] = compound: C1=CC2=NC=CN=C2C=C1/C=C/3\C(=O)NC(=O)S3
Outline: as §1

[11] = compound: C1CCN(C1)C(=O)NC2=CC=CC(=C2)NC3=NC=C(C(=N3)NCCC4=CN=CN4)Br
Outline: as §1

[12] = compound: C1CN(CCC1(CC2=CC=C(C=C2)Cl)N)C3=NC=NC4=C3C=CN4
Outline: as §1

ibrutinib = compound: C=CC(=O)N1CCC[C@@H](n2nc(-c3ccc(Oc4ccccc4)cc3)c3c(N)ncnc32)C1 [ibrutinib]
Outline: as §1

[13] = compound: CC1=C(C2=C(C=C1)C(=O)C3=CC=CC=C3N2CCCN)C
Outline: as §1

[14] = compound: CC1=C(C=C(C=C1)NC(=O)C2=CC(=CC=C2)C(C)(C)C#N)NC3=CC4=C(C=C3)N=CN(C4=O)C
Outline: as §1

erlotinib = compound: C#Cc1cccc(Nc2ncnc3cc(OCCOC)c(OCCOC)cc23)c1 [erlotinib]
Outline: as §1

[15] = compound: C1=CC(=CC=C1C2=NC3=C(N2)C=C(C=C3)C(=O)N)OC4=CC=C(C=C4)Cl
Outline: as §1

[16] = compound: CC(C)C1=C2N=C(C=C(N2N=C1)NCC3=CC=CC=C3)NCCCCCCN
Outline: as §1

Measured: log2 fold change

DCAKD (UniProt Q8WVC6)
inactive: [1] -0.177 | [2] -0.212 | [3] -0.111 | [4] 0.017 | IRAK-1-4 Inhibitor I 0.013 | ralimetinib 0.076 | [5] -0.097 | [6] -0.31 | [7] 0.037

CYTH3 (UniProt O43739)
inactive: [3] -0.041 | IRAK-1-4 Inhibitor I 0.099 | [8] 0.043 | ralimetinib -0.192 | [5] 0.095 | [7] 0.215 | [9] -0.041

DCAF4 (UniProt Q8WV16)
inactive: [10] -0.227 | [11] -0.095 | [12] -0.047 | ibrutinib 0.086 | [8] 0.009 | [6] -0.051 | [13] 0.05 | [14] 0.235 | [9] 0.009

DDX46, A0A0C4DG89
inactive: [1] -0.135 | [2] 0.03 | [10] 0.047 | [4] -0.161 | [11] -0.085 | [12] -0.066 | ibrutinib -0.211 | [8] 0.006 | [6] 0.157 | [13] -0.035 | [9] -0.024

CYP4F11 (UniProt Q9HBI6)
inactive: [3] 0.236 | IRAK-1-4 Inhibitor I -0.205 | ralimetinib 0.203 | [5] 0.227 | [13] 0.895 | [7] 0.199

DDIT3 isoform 2 (UniProt P35638)
inactive: [1] 0.056 | [2] 0.004 | [4] 0.029 | [11] -0.004 | [12] -0.037 | [6] 0.069 | [14] 0.135

CYREN isoform 4 (UniProt Q9BWK5)
inactive: erlotinib 0.059 | [15] 0.062 | [3] -0.09 | IRAK-1-4 Inhibitor I -0.028 | ralimetinib -0.009 | [5] -0.048 | [16] -0.164 | [6] -0.099 | [13] -0.123 | [14] 0.072 | [7] 0.008

DCAF17 (UniProt Q5H9S7)
inactive: [8] -0.106 | [6] 0.101 | [9] 0.042

Pulled one by one from the list above, 2 records:
CYREN isoform 4 (UniProt Q9BWK5)
inactive: erlotinib 0.059 | [15] 0.062 | [3] -0.09 | IRAK-1-4 Inhibitor I -0.028 | ralimetinib -0.009 | [5] -0.048 | [16] -0.164 | [6] -0.099 | [13] -0.123 | [14] 0.072 | [7] 0.008

DDX46, A0A0C4DG89
inactive: [1] -0.135 | [2] 0.03 | [10] 0.047 | [4] -0.161 | [11] -0.085 | [12] -0.066 | ibrutinib -0.211 | [8] 0.006 | [6] 0.157 | [13] -0.035 | [9] -0.024

(continued)

DESI2 (UniProt Q9BSY9)
inactive: [1] 0.195 | [2] -0.043 | [4] 0.119 | [11] 0.002 | [12] 0.067

DAZAP1 (UniProt K7EQ02)
inactive: [6] 0.033

DDX51 (UniProt Q8N8A6)
inactive: erlotinib -0.067 | [15] 0 | [3] 0 | IRAK-1-4 Inhibitor I -0.054 | [8] 0.016 | ralimetinib 0.057 | [5] -0.046 | [16] 0.058 | [6] 0.074 | [13] 0.061 | [14] 0.047 | [7] 0.044 | [9] -0.015

DDB1 isoform 2 (UniProt Q16531)
inactive: [8] -0.327 | [9] -0.104

DENND5A (UniProt Q6IQ26)
inactive: [13] 0.048 | [14] 0.027

DDX19A isoform 2 (UniProt Q9NUU7)
inactive: [14] 0.365

DCAF12L2 (UniProt Q5VW00)
inactive: [1] 0.495 | [2] -0.012 | [10] -0.01 | [4] 0.02 | [11] 0.006 | [12] -0.058 | ibrutinib -0.026

DDX39B (UniProt H0Y400)
inactive: [8] 0.001 | [9] -0.01

DCUN1D3 (UniProt Q8IWE4)
inactive: [10] -0.037 | [11] 0.161 | [12] 0.031 | ibrutinib 0.01 | [6] -0.065 | [13] -0.009

DCBLD1 (UniProt Q8N8Z6)
inactive: [11] -0.441 | [12] 0.305 | [8] 0.079 | [13] 0.095 | [9] -0.066

DAPK3 (UniProt O43293)
inactive: [1] -0.048 | [2] 0.183 | [4] 0.202 | [8] 0.546 | [9] 0.072

DEAF1 (UniProt O75398)
inactive: [11] -0.082 | [12] 0.185 | [13] -0.25

DCBLD2 isoform 2 (UniProt Q96PD2)
inactive: [3] -0.588 | IRAK-1-4 Inhibitor I -0.134 | [8] -0.091 | ralimetinib 0.119 | [5] -0.131 | [13] 0.117 | [7] 0.366 | [9] 0.173

DDIT4 (UniProt Q9NX09)
inactive: [1] 0.381 | [2] -0.055 | [4] -0.022 | [11] -0.171 | [12] -0.062 | [14] 0.102

DDX39B (UniProt F6R6M7)
inactive: [6] 0.058

DDX60L (UniProt Q5H9U9)
inactive: [8] 0.066 | [13] -0.073 | [9] 0

DCAF5 (UniProt Q96JK2)
inactive: [1] 0.114 | [2] -0.161 | [4] 0.091 | [13] -0.157 | [14] -0.02

DCTD (UniProt D6RAD7)
inactive: [6] 0.005

DCLRE1C (UniProt Q96SD1)
inactive: [3] 0.046 | IRAK-1-4 Inhibitor I 0.076 | [8] 0.124 | ralimetinib -0.034 | [5] -0.068 | [14] 0.073 | [7] 0.126 | [9] -0.133

DEPDC1B (UniProt Q8WUY9)
inactive: [1] -0.095 | [2] 0.01 | [3] -0.089 | [4] 0.417 | [11] -0.03 | [12] 0.139 | IRAK-1-4 Inhibitor I -0.007 | ralimetinib 0.133 | [5] -0.125 | [6] 0.247 | [13] 0.433 | [7] -0.017

DET1 isoform 2 (UniProt Q7L5Y6)
inactive: erlotinib 0.104 | [15] 0.094 | [3] 0.167 | IRAK-1-4 Inhibitor I -0.051 | [8] -0.036 | ralimetinib 0.131 | [5] 0.092 | [16] -0.045 | [14] 0.065 | [7] -0.15 | [9] 0.217

DEPDC7 (UniProt Q96QD5)
inactive: [11] -0.007 | [12] -0.031 | [6] -0.162
